# Source: PMC11865524
# Amino acid sequences for entries named in this document (tags omitted).
# UniProt P20823: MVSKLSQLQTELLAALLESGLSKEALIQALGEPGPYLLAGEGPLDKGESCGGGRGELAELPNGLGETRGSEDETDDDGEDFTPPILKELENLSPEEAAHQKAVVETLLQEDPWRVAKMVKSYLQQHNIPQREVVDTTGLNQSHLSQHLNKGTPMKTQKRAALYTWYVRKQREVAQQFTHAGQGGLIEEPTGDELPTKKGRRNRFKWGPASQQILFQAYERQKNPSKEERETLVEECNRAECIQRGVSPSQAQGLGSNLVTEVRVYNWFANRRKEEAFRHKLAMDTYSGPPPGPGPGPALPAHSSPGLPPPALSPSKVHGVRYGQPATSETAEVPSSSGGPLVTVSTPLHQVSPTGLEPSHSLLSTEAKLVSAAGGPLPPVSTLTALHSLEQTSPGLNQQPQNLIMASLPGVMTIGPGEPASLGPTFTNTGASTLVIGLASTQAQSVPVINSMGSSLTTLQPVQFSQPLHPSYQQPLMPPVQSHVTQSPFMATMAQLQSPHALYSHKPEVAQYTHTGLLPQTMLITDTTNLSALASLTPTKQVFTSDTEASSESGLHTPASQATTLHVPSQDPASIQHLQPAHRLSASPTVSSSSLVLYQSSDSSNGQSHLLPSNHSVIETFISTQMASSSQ
# UniProt P29034: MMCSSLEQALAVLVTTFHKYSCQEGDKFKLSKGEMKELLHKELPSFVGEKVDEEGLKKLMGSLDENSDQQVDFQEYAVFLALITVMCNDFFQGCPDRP
# Results are given in words; binding and its absence hold for the method and conditions named. In cells and extracts the contact can be indirect. Some results given as binding are weak or reduced against the parent protein; the word gives no strength.
# Target: endogenous HNF1A (human (endogenous in 769-P and OSRC-2)) (UniProt P20823)
# Experiment: co-IP; endogenous proteins in 769-P cell lysate; anti-HNF1A antibody overnight at 4 °C, Protein A/G kit 3 h at room temperature, PBST washes, immunoblot
substance,measurement,value
endogenous S100A2 (from UniProt P29034 1-98),binding,binds
